The source of these data is article PMC11321995.

Protein sequences, listed by entry. Tags and fused reporters are not part of them. Lines headed by an entry give the natural chain unless they say otherwise; changes in a name come on top.
UniProt P32243: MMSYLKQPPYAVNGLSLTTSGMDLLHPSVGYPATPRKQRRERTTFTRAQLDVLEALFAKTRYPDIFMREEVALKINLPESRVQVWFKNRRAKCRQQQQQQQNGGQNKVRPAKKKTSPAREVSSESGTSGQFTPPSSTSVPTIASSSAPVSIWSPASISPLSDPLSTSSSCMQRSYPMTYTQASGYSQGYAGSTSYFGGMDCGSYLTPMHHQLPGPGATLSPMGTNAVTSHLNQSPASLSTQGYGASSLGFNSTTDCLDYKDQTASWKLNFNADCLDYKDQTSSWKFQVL

For the test, the target named is 3XHA-tagged human OTX2 lacking its DNA-binding homeodomain (human) (UniProt P32243). In words: co-IP; HDMB03 cells overexpressing 3XHA-tagged wild-type OTX2 or OTX2 lacking its homeodomain; precipitated with a haemagglutinin antibody; immunoblot for LASR proteins.

No constants are given. Whether binding was seen depends on the method and setting. In cells and extracts the contact can be indirect. Binding calls can cover weak binding; strength is not graded here.

B1: heterogeneous nuclear ribonucleoprotein M (HNRNPM) (protein, UniProt P52272 1-730)
chain: MAAGVEAAAEVAATEIKMEEESGAPGVPSGNGAPGPKGEGERPAQNEKRKEKNIKRGGNRFEPYANPTKRYRAFITNIPFDVKWQSLKDLVKEKVGEVTYVELLMDAEGKSRGCAVVEFKMEESMKKAAEVLNKHSLSGRPLKVKEDPDGEHARRAMQKVMATTGGMGMGPGGPGMITIPPSILNNPNIPNEIIHALQAGRLGSTVFVANLDYKVGWKKLKEVFSMAGVVVRADILEDKDGKSRGIGTVTFEQSIEAVQAISMFNGQLLFDRPMHVKMDERALPKGDFFPPERPQQLPHGLGGIGMGLGPGGQPIDANHLNKGIGMGNIGPAGMGMEGIGFGINKMGGMEGPFGGGMENMGRFGSGMNMGRINEILSNALKRGEIIAKQGGGGGGGSVPGIERMGPGIDRLGGAGMERMGAGLGHGMDRVGSEIERMGLVMDRMGSVERMGSGIERMGPLGLDHMASSIERMGQTMERIGSGVERMGAGMGFGLERMAAPIDRVGQTIERMGSGVERMGPAIERMGLSMERMVPAGMGAGLERMGPVMDRMATGLERMGANNLERMGLERMGANSLERMGLERMGANSLERMGPAMGPALGAGIERMGLAMGGGGGASFDRAIEMERGNFGGSFAGSFGGAGGHAPGVARKACQIFVRNLPFDFTWKMLKDKFNECGHVLYADIKMENGKSKGCGVVKFESPEVAERACRMMNGMKLSGREIDVRIDRNA
On to B1, for which the binding entry is given as “binds”.
